# From the supplement of paper PMC8728848
# This is one part of the list.
# Columns and labels:
# Experiment in all cases: glycan array binding signal (z-score within array); higher = stronger binding
# Conditions in all cases: glycan notation: IUPAC condensed, linker removed
# [1] = biological target: Neu5Ac(a2-3)Gal(b1-3)[Fuc(a1-4)]GlcNAc(b1-3)Gal(b1-3)[Fuc(a1-4)]GlcNAc
# Method in brief: (§1)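 Columns mapping to the same glycan were averaged after glycan names were converted to IUPAC-condensed notation. The data come from 3228 arrays in the Consortium for Functional Glycomics database, limited to those with an available protein sequence. Binding is reported as a within-array Z-score averaged across arrays of one protein sequence and across linkers.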
# [2] = biological target: Neu5Ac(a2-3)Gal(b1-3)[Fuc(a1-4)]GlcNAc(b1-3)Gal(b1-4)[Fuc(a1-3)]GlcNAc
# Method in brief: as §1
# [3] = biological target: Neu5Ac(a2-3)Gal(b1-3)[Neu5Ac(a2-3)Gal(b1-4)]GlcNAc
# Method in brief: as §1
# [4] = biological target: Neu5Ac(a2-3)Gal(b1-3)[Neu5Ac(a2-6)]GalNAc
# Method in brief: as §1
# [5] = biological target: Neu5Ac(a2-3)Gal(b1-4)Glc
# Method in brief: as §1
# [6] = biological target: Neu5Ac(a2-3)Gal(b1-4)GlcNAc
# Method in brief: as §1
# [7] = biological target: Neu5Ac(a2-3)Gal(b1-4)GlcNAc(b1-2)Man(a1-3)[GlcNAc(b1-2)Man(b1-4)GlcNAc(b1-2)Man(a1-6)]Man(b1-4)GlcNAc(b1-4)GlcNAc
# Method in brief: as §1
# [8] = biological target: Neu5Ac(a2-3)Gal(b1-4)GlcNAc(b1-2)Man(a1-3)[Neu5Ac(a2-6)Gal(b1-4)GlcNAc(b1-2)Man(a1-6)]Man(b1-4)GlcNAc(b1-4)GlcNAc
# Method in brief: as §1
# [9] = biological target: Neu5Ac(a2-3)Gal(b1-4)GlcNAc(b1-3)Gal
# Method in brief: as §1
# [10] = biological target: Neu5Ac(a2-3)Gal(b1-4)GlcNAc(b1-3)Gal(b1-3)GlcNAc
# Method in brief: as §1
# [11] = biological target: Neu5Ac(a2-3)Gal(b1-4)GlcNAc(b1-3)Gal(b1-4)GlcNAc
# Method in brief: as §1
# [12] = biological target: Neu5Ac(a2-3)Gal(b1-4)GlcNAc(b1-3)Gal(b1-4)GlcNAc(b1-3)Gal(b1-4)GlcNAc
# Method in brief: as §1
# [13] = biological target: Neu5Ac(a2-3)Gal(b1-4)GlcNAc(b1-3)Gal(b1-4)[Fuc(a1-3)]GlcNAc
# Method in brief: as §1
# [14] = biological target: Neu5Ac(a2-3)Gal(b1-4)GlcNAc(b1-3)GalNAc
# Method in brief: as §1
# [15] = biological target: Neu5Ac(a2-3)Gal(b1-4)GlcNAc(b1-6)[Gal(b1-3)]GalNAc
# Method in brief: as §1
# [16] = biological target: Neu5Ac(a2-3)Gal(b1-4)GlcNAc(b1-6)[Neu5Ac(a2-3)Gal(b1-3)]GalNAc
# Method in brief: as §1
# [17] = biological target: Neu5Ac(a2-3)Gal(b1-4)GlcNAc6S
# Method in brief: as §1
# [18] = biological target: Neu5Ac(a2-3)Gal(b1-4)[Fuc(a1-3)]GlcNAc
# Method in brief: as §1
# [19] = biological target: Neu5Ac(a2-3)Gal(b1-4)[Fuc(a1-3)]GlcNAc(b1-3)Gal
# Method in brief: as §1
# [20] = biological target: Neu5Ac(a2-3)Gal(b1-4)[Fuc(a1-3)]GlcNAc(b1-3)Gal(b1-4)GlcNAc
# Method in brief: as §1
# [21] = biological target: Neu5Ac(a2-3)Gal(b1-4)[Fuc(a1-3)]GlcNAc(b1-3)Gal(b1-4)[Fuc(a1-3)]GlcNAc(b1-3)Gal(b1-4)[Fuc(a1-3)]GlcNAc
# Method in brief: as §1
# [22] = biological target: Neu5Ac(a2-3)Gal(b1-4)[Fuc(a1-3)]GlcNAc(b1-3)GalNAc
# Method in brief: as §1
# [23] = biological target: Neu5Ac(a2-3)Gal(b1-4)[Fuc(a1-3)]GlcNAc(b1-6)[Gal(b1-3)]GalNAc
# Method in brief: as §1
# [24] = biological target: Neu5Ac(a2-3)Gal(b1-4)[Fuc(a1-3)]GlcNAc6S
# Method in brief: as §1
# [25] = biological target: Neu5Ac(a2-3)Gal6S(b1-4)GlcNAc
# Method in brief: as §1
# [26] = biological target: Neu5Ac(a2-3)Gal6S(b1-4)[Fuc(a1-3)]GlcNAc
# Method in brief: as §1
# [27] = biological target: Neu5Ac(a2-3)GalNAc
# Method in brief: as §1
# [28] = biological target: Neu5Ac(a2-3)GalNAc(b1-4)GlcNAc
# Method in brief: as §1
# [29] = biological target: Neu5Ac(a2-3)[GalNAc(b1-4)]Gal(b1-4)Glc
# Method in brief: as §1
# [30] = biological target: Neu5Ac(a2-3)[GalNAc(b1-4)]Gal(b1-4)GlcNAc
# Method in brief: as §1
# [31] = biological target: Neu5Ac(a2-3)[GalNAc(b1-4)]Gal(b1-4)GlcNAc(b1-3)GalNAc
# Method in brief: as §1
# [32] = biological target: Neu5Ac(a2-3)[Neu5Ac(a2-6)]GalNAc
# Method in brief: as §1
# [33] = biological target: Neu5Ac(a2-6)Gal
# Method in brief: as §1
# [34] = biological target: Neu5Ac(a2-6)Gal(b1-3)GlcNAc(b1-3)[Gal(b1-4)GlcNAc(b1-6)]Gal(b1-4)Glc
# Method in brief: as §1
# [35] = biological target: Neu5Ac(a2-6)Gal(b1-4)Glc
# Method in brief: as §1
# [36] = biological target: Neu5Ac(a2-6)Gal(b1-4)GlcNAc
# Method in brief: as §1
# [37] = biological target: Neu5Ac(a2-6)Gal(b1-4)GlcNAc(b1-2)Man(a1-3)Man(b1-4)GlcNAc(b1-4)GlcNAc
# Method in brief: as §1
# [38] = biological target: Neu5Ac(a2-6)Gal(b1-4)GlcNAc(b1-2)Man(a1-3)[Gal(b1-4)GlcNAc(b1-2)Man(a1-6)]Man(b1-4)GlcNAc(b1-4)GlcNAc
# Method in brief: as §1
binder,measurement,setting,value
"MFG-E8 (Homo sapiens), Q08431 (protein) MPRPRLLAALCGALLCAPSLLVALDICSKNPCHNGGLCEEISQEVRGDVFPSYTCTCLKGYAGNHCETKCVEPLGLENGNIANSQIAASSVRVTFLGLQHWVPELARLNRAGMVNAWTPSSNDDNPWIQVNLLRRMWVTGVVTQGASRLASHEYLKAFKVAYSLNGHEFDFIHDVNKKHKEFVGNWNKNAVHVNLFETPVEAQYVRLYPTSCHTACTLRFELLGCELNGCANPLGLKNNSIPDKQITASSSYKTWGLHLFSWNPSYARLDKQGNFNAWVAGSYGNDQWLQVDLGSSKEVTGIITQGARNFGSVQFVASYKVAYSNDSANWTEYQDPRTGSSKIFPGNWDNHSHKKNLFETPILARYVRILPVAWHNRIALRLELLGC",glycan array binding signal (z-score),[1],1.24
same,glycan array binding signal (z-score),[2],-0.483
same,glycan array binding signal (z-score),[3],-0.722
same,glycan array binding signal (z-score),[4],-0.174
same,glycan array binding signal (z-score),[5],0.001
same,glycan array binding signal (z-score),[6],-0.075
same,glycan array binding signal (z-score),[7],0.027
same,glycan array binding signal (z-score),[8],-0.677
same,glycan array binding signal (z-score),[9],0.052
same,glycan array binding signal (z-score),[10],-0.113
same,glycan array binding signal (z-score),[11],1.58
same,glycan array binding signal (z-score),[12],0.523
same,glycan array binding signal (z-score),[13],-0.618
same,glycan array binding signal (z-score),[14],0.039
same,glycan array binding signal (z-score),[15],-0.167
same,glycan array binding signal (z-score),[16],-0.722
same,glycan array binding signal (z-score),[17],0.461
same,glycan array binding signal (z-score),[18],-0.45
same,glycan array binding signal (z-score),[19],-0.206
same,glycan array binding signal (z-score),[20],-0.126
same,glycan array binding signal (z-score),[21],-0.601
same,glycan array binding signal (z-score),[22],0.349
same,glycan array binding signal (z-score),[23],1.09
same,glycan array binding signal (z-score),[24],1.71
same,glycan array binding signal (z-score),[25],-0.144
same,glycan array binding signal (z-score),[26],-0.252
same,glycan array binding signal (z-score),[27],-0.592
same,glycan array binding signal (z-score),[28],-0.032
same,glycan array binding signal (z-score),[29],-0.452
same,glycan array binding signal (z-score),[30],-0.29
same,glycan array binding signal (z-score),[31],0.405
same,glycan array binding signal (z-score),[32],0.715
same,glycan array binding signal (z-score),[33],-0.01
same,glycan array binding signal (z-score),[34],1.42
same,glycan array binding signal (z-score),[35],-0.016
same,glycan array binding signal (z-score),[36],-0.609
same,glycan array binding signal (z-score),[37],1.53
same,glycan array binding signal (z-score),[38],0.312

# 2 records drawn at random from those above, as already listed:
binder,measurement,setting,value
"MFG-E8 (Homo sapiens), Q08431 (protein) MPRPRLLAALCGALLCAPSLLVALDICSKNPCHNGGLCEEISQEVRGDVFPSYTCTCLKGYAGNHCETKCVEPLGLENGNIANSQIAASSVRVTFLGLQHWVPELARLNRAGMVNAWTPSSNDDNPWIQVNLLRRMWVTGVVTQGASRLASHEYLKAFKVAYSLNGHEFDFIHDVNKKHKEFVGNWNKNAVHVNLFETPVEAQYVRLYPTSCHTACTLRFELLGCELNGCANPLGLKNNSIPDKQITASSSYKTWGLHLFSWNPSYARLDKQGNFNAWVAGSYGNDQWLQVDLGSSKEVTGIITQGARNFGSVQFVASYKVAYSNDSANWTEYQDPRTGSSKIFPGNWDNHSHKKNLFETPILARYVRILPVAWHNRIALRLELLGC",glycan array binding signal (z-score),[16],-0.722
same,glycan array binding signal (z-score),[38],0.312
